Assay results reported in article PMC7412702.
No constants are given. Whether binding was seen depends on the method and setting. In cells and extracts the contact can be indirect. Some binding calls cover weakened binding; strength is not graded here. Sequences can lack the tags named with a protein.

Chains of the proteins cited; added tags and fusions are not shown. Residues count along the entry.
UniProt Q05996, residues 39-640: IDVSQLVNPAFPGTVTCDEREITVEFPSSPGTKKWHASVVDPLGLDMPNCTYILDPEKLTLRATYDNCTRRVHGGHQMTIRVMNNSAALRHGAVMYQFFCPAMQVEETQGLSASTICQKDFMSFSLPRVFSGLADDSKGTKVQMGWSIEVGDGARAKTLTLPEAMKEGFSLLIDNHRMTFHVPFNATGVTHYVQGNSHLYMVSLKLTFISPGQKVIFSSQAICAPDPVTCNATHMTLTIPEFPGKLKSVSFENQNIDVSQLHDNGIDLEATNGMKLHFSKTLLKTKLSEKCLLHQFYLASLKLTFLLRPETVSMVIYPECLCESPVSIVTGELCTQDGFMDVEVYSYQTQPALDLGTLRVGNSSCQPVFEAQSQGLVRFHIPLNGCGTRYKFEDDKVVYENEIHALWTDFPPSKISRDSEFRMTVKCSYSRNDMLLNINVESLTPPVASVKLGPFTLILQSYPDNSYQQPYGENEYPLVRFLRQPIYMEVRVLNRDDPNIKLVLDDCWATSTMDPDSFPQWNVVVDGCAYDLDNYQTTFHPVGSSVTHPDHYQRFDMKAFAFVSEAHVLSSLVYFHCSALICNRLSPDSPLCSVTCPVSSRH

Legend:
[1] = target: T1, HA-tagged human mutant ZP1 (p.Arg109His) (human) (UniProt P60852); test: co-IP; HeLa cells co-transfected with HA-ZP1 (WT, or WT with R109H), FLAG-ZP2 or MYC-ZP3; lysate, anti-HA antibody on Protein A/G magnetic beads overnight at 4°C, six washes with lysis buffer, Western blot
T1 sequence: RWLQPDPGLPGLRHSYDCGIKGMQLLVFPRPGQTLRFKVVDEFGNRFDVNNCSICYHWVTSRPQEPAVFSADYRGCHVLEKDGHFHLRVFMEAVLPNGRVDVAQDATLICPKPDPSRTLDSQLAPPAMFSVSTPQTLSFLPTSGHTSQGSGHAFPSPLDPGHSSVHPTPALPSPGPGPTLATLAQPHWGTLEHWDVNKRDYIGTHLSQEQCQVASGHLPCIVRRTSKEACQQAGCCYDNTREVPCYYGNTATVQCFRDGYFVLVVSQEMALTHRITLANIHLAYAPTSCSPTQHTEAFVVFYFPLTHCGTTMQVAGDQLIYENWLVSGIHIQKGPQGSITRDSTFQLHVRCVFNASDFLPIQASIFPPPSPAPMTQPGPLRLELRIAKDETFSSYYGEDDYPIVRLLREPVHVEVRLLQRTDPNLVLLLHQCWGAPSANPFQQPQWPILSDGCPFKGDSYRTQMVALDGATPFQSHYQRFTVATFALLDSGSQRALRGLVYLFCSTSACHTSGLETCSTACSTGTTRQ

[2] = target: T2, MYC-tagged human wild-type ZP3 (human) (UniProt P21754); test: co-IP; HeLa cells co-transfected with MYC-ZP3 (WT, or WT with A134T), HA-ZP1 or FLAG-ZP2; lysate, Protein A/G magnetic beads overnight at 4°C, Western blot; the legend says anti-HA antibody, the methods also name an anti-MYC antibody
T2 sequence: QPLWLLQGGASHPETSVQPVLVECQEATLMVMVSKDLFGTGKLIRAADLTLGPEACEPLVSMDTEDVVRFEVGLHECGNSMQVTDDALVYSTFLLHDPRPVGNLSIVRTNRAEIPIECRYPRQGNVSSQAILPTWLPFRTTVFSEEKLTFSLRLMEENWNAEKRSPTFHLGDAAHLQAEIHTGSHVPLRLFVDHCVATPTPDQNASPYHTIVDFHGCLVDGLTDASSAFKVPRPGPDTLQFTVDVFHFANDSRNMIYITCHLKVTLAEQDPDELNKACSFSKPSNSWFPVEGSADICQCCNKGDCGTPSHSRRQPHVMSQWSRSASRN

## FLAG-tagged human ZP2 (from UniProt Q05996-1 39-640)
[1]
  binding: binds
[2]
  binding: binds
